# Reference: the supplement of paper PMC12823440, “Inhibitors supercharge kinase turnover through native proteolytic circuits” (Nature, 2025)
# The chains behind the UniProt entries cited, without tags or fusion partners. Where a name states a change or a piece, a line headed by the entry shows the natural chain unless it says otherwise.
# UniProt Q9UQB9: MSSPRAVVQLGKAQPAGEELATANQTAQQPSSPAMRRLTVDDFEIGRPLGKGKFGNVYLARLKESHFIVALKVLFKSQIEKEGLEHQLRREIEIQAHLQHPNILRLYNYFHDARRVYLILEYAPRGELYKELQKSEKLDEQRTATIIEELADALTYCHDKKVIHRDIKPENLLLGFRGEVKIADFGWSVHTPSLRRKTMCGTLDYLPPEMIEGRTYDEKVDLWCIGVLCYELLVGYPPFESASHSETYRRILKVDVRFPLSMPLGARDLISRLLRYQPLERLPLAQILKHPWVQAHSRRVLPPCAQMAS
# UniProt P51451: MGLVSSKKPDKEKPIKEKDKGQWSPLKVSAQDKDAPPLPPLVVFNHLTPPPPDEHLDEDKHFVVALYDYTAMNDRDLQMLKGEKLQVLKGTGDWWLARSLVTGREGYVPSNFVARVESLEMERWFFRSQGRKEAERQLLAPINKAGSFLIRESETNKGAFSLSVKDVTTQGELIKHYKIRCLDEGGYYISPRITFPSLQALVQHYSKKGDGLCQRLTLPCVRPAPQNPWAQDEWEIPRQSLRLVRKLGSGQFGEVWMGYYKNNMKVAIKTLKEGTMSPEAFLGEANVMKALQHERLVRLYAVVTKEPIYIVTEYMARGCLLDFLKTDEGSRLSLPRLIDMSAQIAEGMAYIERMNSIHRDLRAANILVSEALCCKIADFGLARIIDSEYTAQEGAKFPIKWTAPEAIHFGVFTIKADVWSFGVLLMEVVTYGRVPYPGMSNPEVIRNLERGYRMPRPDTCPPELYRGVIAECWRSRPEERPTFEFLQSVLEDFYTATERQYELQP
# Structures can show the parent of a compound that is named as a salt. The list shows a part of the results. Hit calls seldom repeat between salt and free forms of one compound.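 In K562 cells expressing nanoluciferase-fused kinases, luminescence was recorded at 4 h intervals between 2 and 18 h, normalized as percent of control with DMSO at 100% and a positive control at 0%. A significant (2 sigma) signal drop marks a time point as decreased. The authors' rule for a hit is not shown and takes in more than the number of time points.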
# Molecular target: AURKC (UniProt Q9UQB9)
# Assay: kinase-Nluc reporter destabilization hit call (1 = scored as downregulated) (binary); higher = compound decreases kinase abundance
# Conditions: K562; 2-18 h
row,Compound,kinase-Nluc reporter destabilization hit call
1,C/C(O)=C(\C#N)C(=O)Nc1cc(Br)ccc1Br (10 µM),inactive: 0
2,COc1ccc2c(c[n+](C)c3c4cc5c(cc4ccc23)OCO5)c1OC [Chelerythrine (chloride)] (10 µM),inactive: 0
3,COc1ccc2c(c1)[nH]c1c(C)nccc12 [Harmine] (10 µM),inactive: 0
4,CCCCCCCCCCCCCCCCOC[C@H](COP(=O)([O-])OCC[N+](C)(C)C)OC(C)=O (10 µM),inactive: 0
5,O=C(O)c1sc2cc(Cl)ccc2c1Cl (10 µM),inactive: 0
6,C[S+]([O-])/C=C/CCN=C=S (stereo not given) [Sulforaphene] (10 µM),inactive: 0
7,Cn1cc(C2=C(c3cn(C4CCN(Cc5ccccn5)CC4)c4ccccc34)C(=O)NC2=O)c2ccccc21 [Enzastaurin] (10 µM),inactive: 0
8,CCN1CCN(C(=O)Cc2ccc(Nc3ncc(F)c(Nc4ccc(C(=O)Nc5ccccc5Cl)cc4)n3)cc2)CC1 (2.5 µM),inactive: 0
9,Cc1n[nH]cc1-c1cc2nc([C@@H]3CC4CCN3CC4)[nH]c(=O)c2s1 [Simurosertib] (2.5 µM),inactive: 0
10,O=C(N[C@@H](COc1ccc2[nH]c(=O)[nH]c2c1)c1ccccc1)c1cccn(Cc2ccc(F)c(F)c2)c1=O (2.5 µM),inactive: 0
11,CCOC(=O)c1c(/C(C#N)=C\N)c2ccc(Cl)c(Cl)c2n1C (10 µM),inactive: 0
12,C[C@H](CCC(=O)O)C[C@H](C)C[C@H](C)C(=O)/C=C(\O)[C@H](C)C[C@H](C)C/C=C/[C@@H](C)[C@@H](O)[C@@H](C)[C@@H](O)C[C@@H]1CC[C@@](C)([C@H]2CC[C@@](C)([C@@H](C)O)O2)O1 [Ionomycin (calcium)] (2.5 µM),inactive: 0
13,CC(C)(C)c1cc(C=C(C#N)C#N)cc(Br)c1O (2.5 µM),inactive: 0
14,C=CC(=O)N[C@H]1C=C(C)c2c(-c3cnc4ccccc4c3)c3c(N)ncnc3n2C1 (10 µM),inactive: 0
15,COC[C@H]1OC(=O)c2coc3c2[C@@]1(C)C1=C(C3=O)[C@@H]2CCC(=O)[C@@]2(C)C[C@H]1OC(C)=O [Wortmannin] (2.5 µM),inactive: 0
16,CC(=O)c1c(O)c(C)c(O)c(Cc2c(O)c3c(c(C(=O)/C=C/c4ccccc4)c2O)OC(C)(C)C=C3)c1O [Rottlerin] (2 µM),inactive: 0
17,NCCc1cn(S(=O)(=O)c2c(Cl)nc3sccn23)c2ccccc12 (10 µM),inactive: 0

# Molecular target: BLK (UniProt P51451)
# Assay: as above
# Conditions: K562; 2-18 h
row,Compound,kinase-Nluc reporter destabilization hit call
1,CCCCNc1nc(N)c2[nH]c(=O)n(Cc3ccc(C)nc3)c2n1 (10 µM),inactive: 0
2,N#CC(C#N)=Cc1ccc([N+](=O)[O-])c(O)c1 (10 µM),inactive: 0
3,O=c1[nH]c2ccccc2n1C1CCN(Cc2ccc(-c3[nH]c4cc5ncnc5cc4nc3-c3ccccc3)cc2)CC1 [AKT inhibitor VIII] (2.5 µM),inactive: 0
4,CC(=O)Oc1ccc(/C=C/c2cc(OC(C)=O)cc(OC(C)=O)c2)cc1 [Triacetylresveratrol] (10 µM),inactive: 0
5,O=C1c2ccccc2C(=O)c2c1cccc2-c1cnn(C2CCNCC2)c1 [PDK4-IN-1 (hydrochloride)] (10 µM),inactive: 0
6,CC1C(=O)OC2C(O)C34C5OC(=O)C3(OC3OC(=O)C(O)C34C(C(C)(C)C)C5O)C12O (stereo not given) [Ginkgolide C] (10 µM),inactive: 0
7,O=Cc1cn(Cc2ccc(Cl)cc2)c2ccccc12 [Oncrasin-1] (10 µM),inactive: 0
8,N#CC(C#N)=NNc1cccc(Cl)c1 (2.5 µM),inactive: 0
9,CC(C)=CC[C@@H](OC(=O)CC(C)(C)O)C1=CC(=O)c2c(O)ccc(O)c2C1=O [β-Hydroxyisovalerylshikonin] (2.5 µM),inactive: 0
10,O=c1ccc2cc(O[C@@H]3O[C@H](CO)[C@@H](O)[C@H](O)[C@H]3O)c(O)cc2o1 [Esculin] (10 µM),inactive: 0
11,C[C@H]1CC[C@]2(NC1)O[C@H]1C[C@H]3[C@@H]4CC[C@H]5C[C@@H](O)CC[C@]5(C)[C@H]4CC[C@]3(C)[C@H]1[C@@H]2C [Tomatidine] (2 µM),inactive: 0
12,C/C(O)=C(\C#N)C(=O)Nc1cc(Br)ccc1Br (10 µM),inactive: 0
13,COc1ccc2c(c[n+](C)c3c4cc5c(cc4ccc23)OCO5)c1OC [Chelerythrine (chloride)] (10 µM),inactive: 0
14,COc1ccc2c(c1)[nH]c1c(C)nccc12 [Harmine] (10 µM),inactive: 0
15,CCCCCCCCCCCCCCCCOC[C@H](COP(=O)([O-])OCC[N+](C)(C)C)OC(C)=O (10 µM),inactive: 0
16,O=C(O)c1sc2cc(Cl)ccc2c1Cl (10 µM),inactive: 0
17,C[S+]([O-])/C=C/CCN=C=S (stereo not given) [Sulforaphene] (10 µM),inactive: 0
18,Cn1cc(C2=C(c3cn(C4CCN(Cc5ccccn5)CC4)c4ccccc34)C(=O)NC2=O)c2ccccc21 [Enzastaurin] (10 µM),inactive: 0
19,CCN1CCN(C(=O)Cc2ccc(Nc3ncc(F)c(Nc4ccc(C(=O)Nc5ccccc5Cl)cc4)n3)cc2)CC1 (2.5 µM),inactive: 0
20,Cc1n[nH]cc1-c1cc2nc([C@@H]3CC4CCN3CC4)[nH]c(=O)c2s1 [Simurosertib] (2.5 µM),inactive: 0
21,O=C(N[C@@H](COc1ccc2[nH]c(=O)[nH]c2c1)c1ccccc1)c1cccn(Cc2ccc(F)c(F)c2)c1=O (2.5 µM),inactive: 0
22,CCOC(=O)c1c(/C(C#N)=C\N)c2ccc(Cl)c(Cl)c2n1C (10 µM),inactive: 0
23,C[C@H](CCC(=O)O)C[C@H](C)C[C@H](C)C(=O)/C=C(\O)[C@H](C)C[C@H](C)C/C=C/[C@@H](C)[C@@H](O)[C@@H](C)[C@@H](O)C[C@@H]1CC[C@@](C)([C@H]2CC[C@@](C)([C@@H](C)O)O2)O1 [Ionomycin (calcium)] (2.5 µM),inactive: 0
24,CC(C)(C)c1cc(C=C(C#N)C#N)cc(Br)c1O (2.5 µM),inactive: 0
25,C=CC(=O)N[C@H]1C=C(C)c2c(-c3cnc4ccccc4c3)c3c(N)ncnc3n2C1 (10 µM),inactive: 0
26,COC[C@H]1OC(=O)c2coc3c2[C@@]1(C)C1=C(C3=O)[C@@H]2CCC(=O)[C@@]2(C)C[C@H]1OC(C)=O [Wortmannin] (2.5 µM),inactive: 0
27,CC(=O)c1c(O)c(C)c(O)c(Cc2c(O)c3c(c(C(=O)/C=C/c4ccccc4)c2O)OC(C)(C)C=C3)c1O [Rottlerin] (2 µM),inactive: 0
28,NCCc1cn(S(=O)(=O)c2c(Cl)nc3sccn23)c2ccccc12 (10 µM),inactive: 0
